In assay [1] the target is T1, HA-FOXR2 (forkhead box R2) (human) (UniProt Q6PJQ5).
T1 sequence: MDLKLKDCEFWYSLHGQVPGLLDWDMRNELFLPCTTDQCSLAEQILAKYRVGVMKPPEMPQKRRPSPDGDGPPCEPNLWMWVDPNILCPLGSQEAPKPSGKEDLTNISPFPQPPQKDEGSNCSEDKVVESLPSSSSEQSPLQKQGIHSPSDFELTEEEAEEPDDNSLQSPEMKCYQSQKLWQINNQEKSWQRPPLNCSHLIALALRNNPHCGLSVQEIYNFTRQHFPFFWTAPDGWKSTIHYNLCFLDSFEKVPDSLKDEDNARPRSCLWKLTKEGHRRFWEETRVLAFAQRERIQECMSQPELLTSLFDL
Description: co-IP; 293T cells co-transfected with HA-FOXR2/SRF and Myc-EPC1/EPC2, collected 36 to 48 h after transfection; cell extracts incubated with anti-HA-Tag antibody-conjugated agarose beads for 4 h at 4°C, beads washed with PBS, Western blot.

Amino acid sequences for entries named in this document (tags omitted).
UniProt Q9H2F5: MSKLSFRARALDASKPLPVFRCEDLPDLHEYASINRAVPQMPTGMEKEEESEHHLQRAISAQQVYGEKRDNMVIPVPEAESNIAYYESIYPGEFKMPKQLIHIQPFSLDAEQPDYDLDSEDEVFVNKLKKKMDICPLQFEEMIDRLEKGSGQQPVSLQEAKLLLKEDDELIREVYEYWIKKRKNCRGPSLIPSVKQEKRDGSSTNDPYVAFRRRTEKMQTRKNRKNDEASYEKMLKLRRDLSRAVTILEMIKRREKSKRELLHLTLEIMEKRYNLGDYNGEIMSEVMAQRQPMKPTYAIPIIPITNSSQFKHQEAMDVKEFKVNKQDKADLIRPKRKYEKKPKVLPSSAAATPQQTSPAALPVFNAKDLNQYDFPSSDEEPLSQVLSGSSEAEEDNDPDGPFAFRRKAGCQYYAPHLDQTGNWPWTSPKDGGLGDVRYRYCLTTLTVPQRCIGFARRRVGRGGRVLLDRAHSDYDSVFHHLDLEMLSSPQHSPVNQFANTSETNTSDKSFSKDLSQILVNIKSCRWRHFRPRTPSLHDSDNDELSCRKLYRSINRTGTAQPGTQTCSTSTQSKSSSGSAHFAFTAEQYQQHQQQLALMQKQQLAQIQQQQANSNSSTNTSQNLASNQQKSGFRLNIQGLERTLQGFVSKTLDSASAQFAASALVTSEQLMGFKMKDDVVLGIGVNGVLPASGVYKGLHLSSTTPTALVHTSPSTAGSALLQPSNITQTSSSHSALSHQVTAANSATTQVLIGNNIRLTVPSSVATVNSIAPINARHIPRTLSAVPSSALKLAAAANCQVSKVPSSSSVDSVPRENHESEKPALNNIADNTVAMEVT
UniProt Q52LR7: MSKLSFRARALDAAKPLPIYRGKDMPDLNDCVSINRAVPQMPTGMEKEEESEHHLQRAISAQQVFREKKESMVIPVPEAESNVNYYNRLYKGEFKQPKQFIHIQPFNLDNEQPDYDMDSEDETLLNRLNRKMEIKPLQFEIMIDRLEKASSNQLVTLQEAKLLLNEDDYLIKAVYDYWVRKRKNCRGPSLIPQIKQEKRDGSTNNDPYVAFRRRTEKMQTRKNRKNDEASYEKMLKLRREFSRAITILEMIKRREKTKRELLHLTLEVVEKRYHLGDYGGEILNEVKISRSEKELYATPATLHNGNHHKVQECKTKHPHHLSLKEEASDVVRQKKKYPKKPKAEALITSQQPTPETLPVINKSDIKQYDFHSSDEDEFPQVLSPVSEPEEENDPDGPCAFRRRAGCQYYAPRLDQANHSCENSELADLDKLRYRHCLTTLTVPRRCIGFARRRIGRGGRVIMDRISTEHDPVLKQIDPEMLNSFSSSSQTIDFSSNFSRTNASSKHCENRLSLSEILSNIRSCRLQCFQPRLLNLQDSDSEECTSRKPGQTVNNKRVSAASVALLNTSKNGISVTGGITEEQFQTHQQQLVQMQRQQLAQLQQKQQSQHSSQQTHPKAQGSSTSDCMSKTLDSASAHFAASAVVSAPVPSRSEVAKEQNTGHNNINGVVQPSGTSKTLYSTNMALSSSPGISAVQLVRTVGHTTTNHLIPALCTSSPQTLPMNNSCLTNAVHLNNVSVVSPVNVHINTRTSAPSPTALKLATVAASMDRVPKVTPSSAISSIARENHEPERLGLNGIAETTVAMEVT

For assay [2], the target named is T2, HA-SRF (serum response factor) (human) (UniProt P11831).
T2 sequence: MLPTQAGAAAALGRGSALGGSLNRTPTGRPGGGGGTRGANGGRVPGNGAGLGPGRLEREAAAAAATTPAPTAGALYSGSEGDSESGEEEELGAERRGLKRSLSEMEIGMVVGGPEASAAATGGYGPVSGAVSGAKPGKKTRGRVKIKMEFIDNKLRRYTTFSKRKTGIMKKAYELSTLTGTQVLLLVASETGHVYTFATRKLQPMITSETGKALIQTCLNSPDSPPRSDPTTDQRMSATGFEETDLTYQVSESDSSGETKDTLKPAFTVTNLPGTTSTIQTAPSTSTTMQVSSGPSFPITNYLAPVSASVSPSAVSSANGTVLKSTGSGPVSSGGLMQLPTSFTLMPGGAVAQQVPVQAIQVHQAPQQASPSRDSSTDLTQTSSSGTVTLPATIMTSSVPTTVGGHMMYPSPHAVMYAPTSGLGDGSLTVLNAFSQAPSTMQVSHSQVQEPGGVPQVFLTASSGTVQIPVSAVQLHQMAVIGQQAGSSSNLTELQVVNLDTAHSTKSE
The assay is described as above.

These are yes or no findings as the source states them, for the method shown. Binding seen in cells or lysates may run through a third protein. Some results given as binding are weak or reduced against the parent protein; the word gives no strength. Where a sequence is shown, tags or fusion partners need not be part of it.

As to “Myc-EPC1 (enhancer of polycomb 1) (from UniProt Q9H2F5 1-836)”, the binding entry in assay [1] and in assay [2] was “binds” throughout.
Regarding “Myc-EPC2 (enhancer of polycomb 2) (from UniProt Q52LR7 1-807)”, the binding entry in assay [1] and in assay [2] was “binds” throughout.
